Experiment [1] concerns the target apolipoprotein A1 (apoA1) (human (endogenous in plasma)) (UniProt P02647). Nature of the experiment: cross-linking; XLMS with DSSO; which sample (plasma, immunoHDL or ucHDL) is not told.
For experiment [2] the target is unchanged. The experiment can be described thus: cross-linking; XLMS with DSSO on ucHDL spiked with recombinant PCSK9 before analysis; cross-links of PCSK9 to HDL proteins; only the binder purified.
The target in experiment [3] is apolipoprotein A2 (apoA2) (human (endogenous in plasma)) (UniProt P02652). Nature of the experiment: cross-linking; XLMS with DSSO on ucHDL; cross-links among the HDL's own proteins.
For experiment [4] the target is unchanged. Nature of the experiment: cross-linking; XLMS with DSSO (1 mmol/L) on immunoHDL (HDL immuno-isolated from plasma, n=8 healthy subjects, pooled).

The chains behind the UniProt entries cited, without tags or fusion partners. Where a name states a change or a piece, a line headed by the entry shows the natural chain unless it says otherwise. Residues count along the entry.
UniProt P02647: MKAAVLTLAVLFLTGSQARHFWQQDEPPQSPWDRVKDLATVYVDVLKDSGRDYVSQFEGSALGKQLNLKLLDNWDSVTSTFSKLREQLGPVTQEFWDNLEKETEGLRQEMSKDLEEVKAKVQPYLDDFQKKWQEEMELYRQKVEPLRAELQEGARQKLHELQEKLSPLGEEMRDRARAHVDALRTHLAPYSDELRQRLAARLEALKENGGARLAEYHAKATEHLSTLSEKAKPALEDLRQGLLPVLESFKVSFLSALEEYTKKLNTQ
UniProt P02652: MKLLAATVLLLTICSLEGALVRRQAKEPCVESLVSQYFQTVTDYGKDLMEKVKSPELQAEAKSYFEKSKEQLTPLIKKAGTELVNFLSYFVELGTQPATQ
UniProt P04114, residues 28-4563: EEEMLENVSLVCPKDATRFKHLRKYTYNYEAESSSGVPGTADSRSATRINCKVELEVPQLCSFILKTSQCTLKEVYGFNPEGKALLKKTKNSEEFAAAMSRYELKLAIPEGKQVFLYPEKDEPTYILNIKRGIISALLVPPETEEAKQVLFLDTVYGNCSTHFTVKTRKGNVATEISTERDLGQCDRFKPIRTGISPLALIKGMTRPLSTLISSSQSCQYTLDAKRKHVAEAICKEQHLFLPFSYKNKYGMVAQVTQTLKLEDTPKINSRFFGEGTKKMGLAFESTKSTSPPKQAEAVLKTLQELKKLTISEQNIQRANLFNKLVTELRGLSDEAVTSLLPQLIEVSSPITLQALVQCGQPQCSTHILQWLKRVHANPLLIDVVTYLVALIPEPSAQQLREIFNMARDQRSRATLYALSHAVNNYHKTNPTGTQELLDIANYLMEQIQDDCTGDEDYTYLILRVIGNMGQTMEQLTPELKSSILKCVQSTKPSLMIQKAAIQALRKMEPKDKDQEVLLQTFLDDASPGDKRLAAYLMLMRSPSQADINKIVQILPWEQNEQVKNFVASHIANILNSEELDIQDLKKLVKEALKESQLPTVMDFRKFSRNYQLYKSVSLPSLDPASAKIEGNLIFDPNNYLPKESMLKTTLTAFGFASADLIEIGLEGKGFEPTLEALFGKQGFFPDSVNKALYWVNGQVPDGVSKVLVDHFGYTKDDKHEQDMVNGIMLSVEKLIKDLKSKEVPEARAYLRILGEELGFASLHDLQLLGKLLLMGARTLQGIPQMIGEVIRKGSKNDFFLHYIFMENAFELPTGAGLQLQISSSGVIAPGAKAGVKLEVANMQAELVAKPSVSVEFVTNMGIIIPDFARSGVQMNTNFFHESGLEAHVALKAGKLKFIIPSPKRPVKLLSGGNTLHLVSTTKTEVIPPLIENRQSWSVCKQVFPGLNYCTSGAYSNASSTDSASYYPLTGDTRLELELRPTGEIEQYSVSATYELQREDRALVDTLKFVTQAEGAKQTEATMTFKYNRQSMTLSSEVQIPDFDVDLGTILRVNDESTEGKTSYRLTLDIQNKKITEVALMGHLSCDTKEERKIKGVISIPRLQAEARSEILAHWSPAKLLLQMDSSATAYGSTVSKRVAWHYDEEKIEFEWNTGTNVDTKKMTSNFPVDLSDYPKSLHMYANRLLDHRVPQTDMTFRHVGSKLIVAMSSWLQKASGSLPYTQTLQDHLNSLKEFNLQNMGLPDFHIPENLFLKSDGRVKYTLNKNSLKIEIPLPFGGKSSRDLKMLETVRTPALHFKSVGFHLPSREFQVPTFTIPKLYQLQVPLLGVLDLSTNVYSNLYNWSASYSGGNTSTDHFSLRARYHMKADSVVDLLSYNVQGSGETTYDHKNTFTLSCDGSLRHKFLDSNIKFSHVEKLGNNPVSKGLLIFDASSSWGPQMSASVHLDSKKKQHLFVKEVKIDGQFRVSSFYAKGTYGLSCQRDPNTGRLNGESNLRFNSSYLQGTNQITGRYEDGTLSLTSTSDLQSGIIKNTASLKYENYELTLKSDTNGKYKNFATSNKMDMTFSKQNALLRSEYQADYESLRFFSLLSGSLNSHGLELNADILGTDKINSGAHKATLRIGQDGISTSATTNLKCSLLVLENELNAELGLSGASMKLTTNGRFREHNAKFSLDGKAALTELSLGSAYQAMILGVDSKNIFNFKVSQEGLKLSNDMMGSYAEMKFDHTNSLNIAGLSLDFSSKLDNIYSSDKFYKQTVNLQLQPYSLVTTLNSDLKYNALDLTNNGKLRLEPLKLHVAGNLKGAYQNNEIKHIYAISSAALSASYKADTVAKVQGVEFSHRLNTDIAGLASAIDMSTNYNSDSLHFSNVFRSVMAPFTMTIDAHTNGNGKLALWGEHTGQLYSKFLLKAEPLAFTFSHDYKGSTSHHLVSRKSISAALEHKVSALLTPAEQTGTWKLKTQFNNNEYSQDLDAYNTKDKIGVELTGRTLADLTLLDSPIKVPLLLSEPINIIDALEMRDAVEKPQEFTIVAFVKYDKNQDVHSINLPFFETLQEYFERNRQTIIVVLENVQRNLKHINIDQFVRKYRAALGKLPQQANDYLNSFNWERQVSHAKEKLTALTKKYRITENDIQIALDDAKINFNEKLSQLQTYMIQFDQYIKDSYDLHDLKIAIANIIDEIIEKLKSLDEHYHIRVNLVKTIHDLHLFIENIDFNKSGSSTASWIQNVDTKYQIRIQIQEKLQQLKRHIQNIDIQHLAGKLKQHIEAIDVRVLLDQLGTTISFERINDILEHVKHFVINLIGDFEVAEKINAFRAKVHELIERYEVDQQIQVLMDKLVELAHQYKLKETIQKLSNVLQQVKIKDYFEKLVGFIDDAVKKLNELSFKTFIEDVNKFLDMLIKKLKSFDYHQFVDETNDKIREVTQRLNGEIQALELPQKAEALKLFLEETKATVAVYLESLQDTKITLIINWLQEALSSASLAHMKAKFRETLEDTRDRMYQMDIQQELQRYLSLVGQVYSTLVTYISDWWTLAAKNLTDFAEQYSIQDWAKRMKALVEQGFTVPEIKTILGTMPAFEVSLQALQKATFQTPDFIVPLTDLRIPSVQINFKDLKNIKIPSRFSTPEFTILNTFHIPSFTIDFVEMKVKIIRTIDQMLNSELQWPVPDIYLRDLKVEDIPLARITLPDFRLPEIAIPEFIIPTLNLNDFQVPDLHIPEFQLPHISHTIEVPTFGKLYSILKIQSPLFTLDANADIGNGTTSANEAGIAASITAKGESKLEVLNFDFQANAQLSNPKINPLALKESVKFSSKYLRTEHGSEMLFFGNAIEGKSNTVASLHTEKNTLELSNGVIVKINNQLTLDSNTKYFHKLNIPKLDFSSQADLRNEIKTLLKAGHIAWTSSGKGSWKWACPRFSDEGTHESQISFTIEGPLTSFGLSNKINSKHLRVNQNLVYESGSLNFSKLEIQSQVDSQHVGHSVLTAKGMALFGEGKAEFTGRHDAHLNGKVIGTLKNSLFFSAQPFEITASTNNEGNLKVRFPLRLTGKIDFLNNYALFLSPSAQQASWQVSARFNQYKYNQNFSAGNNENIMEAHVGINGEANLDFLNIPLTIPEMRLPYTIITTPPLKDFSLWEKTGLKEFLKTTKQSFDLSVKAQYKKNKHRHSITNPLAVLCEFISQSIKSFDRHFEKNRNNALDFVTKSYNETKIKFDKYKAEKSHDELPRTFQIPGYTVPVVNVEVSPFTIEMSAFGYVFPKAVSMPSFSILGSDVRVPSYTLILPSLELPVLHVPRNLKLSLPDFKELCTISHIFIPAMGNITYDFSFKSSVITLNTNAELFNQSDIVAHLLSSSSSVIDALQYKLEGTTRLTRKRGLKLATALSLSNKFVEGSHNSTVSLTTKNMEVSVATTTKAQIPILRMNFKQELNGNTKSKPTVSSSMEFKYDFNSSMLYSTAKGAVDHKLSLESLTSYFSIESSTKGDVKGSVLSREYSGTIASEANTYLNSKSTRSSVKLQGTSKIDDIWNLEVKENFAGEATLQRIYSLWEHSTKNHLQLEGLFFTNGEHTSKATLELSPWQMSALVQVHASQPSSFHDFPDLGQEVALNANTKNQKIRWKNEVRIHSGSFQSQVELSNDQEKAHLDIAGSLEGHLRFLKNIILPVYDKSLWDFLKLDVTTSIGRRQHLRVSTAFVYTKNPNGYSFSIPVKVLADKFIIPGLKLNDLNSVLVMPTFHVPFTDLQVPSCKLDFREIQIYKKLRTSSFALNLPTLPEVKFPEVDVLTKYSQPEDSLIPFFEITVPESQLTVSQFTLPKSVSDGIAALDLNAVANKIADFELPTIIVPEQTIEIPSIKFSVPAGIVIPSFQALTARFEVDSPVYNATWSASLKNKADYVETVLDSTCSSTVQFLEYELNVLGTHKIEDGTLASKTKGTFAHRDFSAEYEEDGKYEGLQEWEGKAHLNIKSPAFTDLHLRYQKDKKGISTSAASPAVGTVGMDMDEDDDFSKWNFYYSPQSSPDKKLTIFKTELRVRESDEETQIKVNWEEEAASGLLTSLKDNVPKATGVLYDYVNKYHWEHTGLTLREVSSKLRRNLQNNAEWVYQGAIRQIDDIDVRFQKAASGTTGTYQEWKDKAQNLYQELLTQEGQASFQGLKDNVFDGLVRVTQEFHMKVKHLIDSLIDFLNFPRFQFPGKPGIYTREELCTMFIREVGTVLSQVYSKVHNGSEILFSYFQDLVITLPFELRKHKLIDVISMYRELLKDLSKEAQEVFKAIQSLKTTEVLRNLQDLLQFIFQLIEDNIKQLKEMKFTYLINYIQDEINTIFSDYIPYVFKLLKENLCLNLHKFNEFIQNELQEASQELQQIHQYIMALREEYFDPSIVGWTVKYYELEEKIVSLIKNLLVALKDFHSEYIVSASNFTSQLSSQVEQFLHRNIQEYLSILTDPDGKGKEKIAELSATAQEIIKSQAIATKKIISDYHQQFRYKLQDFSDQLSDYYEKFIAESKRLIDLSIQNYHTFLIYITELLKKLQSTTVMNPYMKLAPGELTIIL
UniProt Q8NBP7: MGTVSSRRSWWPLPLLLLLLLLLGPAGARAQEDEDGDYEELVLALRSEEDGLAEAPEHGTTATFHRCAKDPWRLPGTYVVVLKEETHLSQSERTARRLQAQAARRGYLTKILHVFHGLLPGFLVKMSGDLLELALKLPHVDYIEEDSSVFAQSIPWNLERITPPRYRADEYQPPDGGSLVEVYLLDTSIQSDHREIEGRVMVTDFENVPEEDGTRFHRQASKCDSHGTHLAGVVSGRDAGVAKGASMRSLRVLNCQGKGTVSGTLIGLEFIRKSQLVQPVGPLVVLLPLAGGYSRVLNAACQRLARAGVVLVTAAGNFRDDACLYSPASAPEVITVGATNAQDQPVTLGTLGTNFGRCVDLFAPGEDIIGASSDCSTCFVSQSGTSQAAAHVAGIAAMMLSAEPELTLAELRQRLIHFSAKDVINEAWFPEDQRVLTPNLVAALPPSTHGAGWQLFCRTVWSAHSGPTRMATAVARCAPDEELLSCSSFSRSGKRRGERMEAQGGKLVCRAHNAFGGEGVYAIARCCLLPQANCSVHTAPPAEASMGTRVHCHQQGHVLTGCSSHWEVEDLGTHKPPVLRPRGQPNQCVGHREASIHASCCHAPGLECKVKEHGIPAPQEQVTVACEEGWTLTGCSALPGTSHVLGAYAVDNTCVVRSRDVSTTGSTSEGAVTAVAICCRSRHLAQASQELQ

Results are given in words; binding and its absence hold for the method and conditions named. In cells and extracts the contact can be indirect. A result given as binding can be weak or reduced; the word gives no strength.

For the molecule “apolipoprotein B (apoB) (from UniProt P04114 28-4563)”, the binding result in experiment [1] was “binds”. For the molecule “recombinant HIS (polyhistidine)-tagged PCSK9 (from UniProt Q8NBP7)”, the binding result in experiment [2] is “binds”.

B1: apolipoprotein C1 (apoC1) (protein, UniProt P02654 27-83)
chain: TPDVSSALDKLKEFGNTLEDKARELISRIKQSELSAKMREWFSETFQKVKEKLKIDS
As for B1, the binding result in experiment [3] and in experiment [4] was “binds” each time.

(Values after paper PMC8579991.)
